# Tested on: MDA-MB-231
# Assay: Cytotoxicity against human MDA-MB-231 cells (reference value: 3.0 uM)
# Type: functional, cell-based
structure (smiles),measurement,value
COc1cccc2c1C(=O)c1c(O)c3c(c(O)c1C2=O)C[C@@](O)(C(=O)CO)C[C@@H]3O[C@H]1C[C@H](N)[C@H](O)[C@H](C)O1 [DOXORUBICIN],IC50,1500 nM

# Source: ChEMBL document CHEMBL5226327, “Source and exploration of the peptides used to construct peptide-drug conjugates” (Eur J Med Chem, 2021)
